# Reference: PubChem BioAssay AID1259254 (NCATS, 2017)
# Test: 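Genome-wide screen for genes that prevent DNA re-replication in cancer cells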 (primary screen)
# System: human HCT116 colorectal cancer cells
# Reagent: single siRNA against human genes
# Time to read-out: 3 days
# Detection: 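Nuclei stained with Hoechst and imaged; cell-cycle phase assigned by DNA content; G2 share scaled per plate, non-targeting siRNA 0%, GMNN siRNA 100%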
# Direction: G2 robust z-score and G2 cells, % of GMNN control: higher = more G2 cells, more excess DNA replication; raw share of cells in G2: higher = larger share of cells with G2 DNA content
# Call rule: 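An siRNA counts as active if its G2 robust z-score lies at least 5 MADs above the screen median; here such calls match roughly 38% of GMNN control or more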
# The whole screen tested about 59,000 reagents; this is a part drawn at random. About 1,550 of them (2.6%) were called active. 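G2 share is only a proxy for re-replication; each gene was hit by three separate siRNAs, and active genes were retested.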 Raw values are not corrected between plates. Reagents against one gene are numbered here. Reagent sequences are not shown. Not stated in the record: the amount of reagent.
The opening 3 records as a preview:
Gene,reagent,G2 robust z-score,"G2 cells, % of GMNN control",raw share of cells in G2 (%),activity call
PAFAH1B2P2,1,-0.714,-2.06,2.53,inactive
PAFAH1B2P2,2,0.0539,3.35,4.12,inactive
PAFAH1B2P2,3,0.485,6.38,6.07,inactive

Results, repeating the preview:
Gene,reagent,G2 robust z-score,"G2 cells, % of GMNN control",raw share of cells in G2 (%),activity call
PAFAH1B2P2,1,-0.714,-2.06,2.53,inactive
PAFAH1B2P2,2,0.0539,3.35,4.12,inactive
PAFAH1B2P2,3,0.485,6.38,6.07,inactive
ACAP1,1,-0.233,1.33,3.65,inactive
ACAP1,2,1.41,12.9,9.99,inactive
ACAP1,3,1.45,13.2,10.2,inactive
FIBCD1,1,-0.61,-1.32,5.06,inactive
FIBCD1,2,0.376,5.62,7.38,inactive
FIBCD1,3,0.717,8.01,7.51,inactive
HLA-DMA,1,-0.502,-0.563,3.24,inactive
HLA-DMA,2,1.11,10.8,9.89,inactive
HLA-DMA,3,0.098,3.66,4.44,inactive
PTGDR,1,1.09,10.6,9.64,inactive
PTGDR,2,1.28,12,8.71,inactive
PTGDR,3,-0.606,-1.3,2.87,inactive
GID4,1,-0.274,1.04,5.03,inactive
GID4,2,1.07,10.5,9.3,inactive
GID4,3,-0.348,0.518,2.83,inactive
KRT26,1,-0.529,-0.755,3.73,inactive
KRT26,2,-0.239,1.29,3.82,inactive
KRT26,3,-0.382,0.282,4.3,inactive
CCNB3,1,-0.66,-1.68,3.85,inactive
CCNB3,2,3.97,30.9,18.2,inactive
CCNB3,3,-0.206,1.52,6.38,inactive
BRPF1,1,-0.821,-2.81,3.22,inactive
BRPF1,2,4.56,35.1,20.4,inactive
BRPF1,3,0.209,4.44,5.94,inactive
ZNF106,1,-0.7,-1.96,4.84,inactive
ZNF106,2,-0.789,-2.58,3.43,inactive
ZNF106,3,4.62,35.5,17.1,inactive
